# Measured values as given in US8841087B2 (priority 2008, dated 2014).
# At least one compound was matched to its structure with a doubt left.
# System: clinical strains of Mycobacterium tuberculosis
# Experiment: Reference phenotypic test of antibiotic sensitivity in solid medium
# Type: cell-based
# Conditions: six clinical strains; rifampicin, 1 μg/ml
compound,measurement,value
CO[C@H]1/C=C/O[C@@]2(C)Oc3c(C)c(O)c4c(O)c(c(/C=N/N5CCN(C)CC5)c(O)c4c3C2=O)NC(=O)/C(C)=C\C=C\[C@H](C)[C@H](O)[C@@H](C)[C@@H](O)[C@@H](C)[C@H](OC(C)=O)[C@@H]1C [rifampicin],sensitivity at critical concentration,sensitive
